# Results reported in the supplement of paper PMC11006884.
# Chains of the proteins cited; added tags and fusions are not shown. Lines headed by an entry give the natural chain unless they say otherwise; changes in a name come on top.
# UniProt Q8N335: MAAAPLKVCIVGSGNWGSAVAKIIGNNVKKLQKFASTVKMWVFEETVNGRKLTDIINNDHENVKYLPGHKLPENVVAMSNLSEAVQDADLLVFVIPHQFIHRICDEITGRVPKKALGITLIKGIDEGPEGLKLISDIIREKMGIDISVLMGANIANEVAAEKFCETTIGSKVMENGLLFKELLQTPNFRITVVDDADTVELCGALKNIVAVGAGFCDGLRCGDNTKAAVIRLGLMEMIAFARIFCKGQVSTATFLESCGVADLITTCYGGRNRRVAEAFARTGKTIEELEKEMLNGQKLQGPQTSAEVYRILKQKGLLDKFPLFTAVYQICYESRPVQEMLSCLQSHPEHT
# UniProt Q8N6H7: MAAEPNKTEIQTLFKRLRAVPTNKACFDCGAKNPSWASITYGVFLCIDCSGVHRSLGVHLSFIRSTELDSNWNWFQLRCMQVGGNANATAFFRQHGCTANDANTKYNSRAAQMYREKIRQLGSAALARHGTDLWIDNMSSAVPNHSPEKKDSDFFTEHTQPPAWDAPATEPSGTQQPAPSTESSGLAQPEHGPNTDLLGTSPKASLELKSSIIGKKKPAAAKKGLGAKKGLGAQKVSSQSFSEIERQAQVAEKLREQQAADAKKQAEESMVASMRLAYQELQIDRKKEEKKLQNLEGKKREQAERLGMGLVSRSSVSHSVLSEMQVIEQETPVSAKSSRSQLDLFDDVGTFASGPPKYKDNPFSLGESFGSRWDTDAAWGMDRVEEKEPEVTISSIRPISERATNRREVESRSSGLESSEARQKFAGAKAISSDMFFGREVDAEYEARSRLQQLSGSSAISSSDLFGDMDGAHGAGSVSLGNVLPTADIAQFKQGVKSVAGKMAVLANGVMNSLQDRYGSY
# UniProt Q8NI27: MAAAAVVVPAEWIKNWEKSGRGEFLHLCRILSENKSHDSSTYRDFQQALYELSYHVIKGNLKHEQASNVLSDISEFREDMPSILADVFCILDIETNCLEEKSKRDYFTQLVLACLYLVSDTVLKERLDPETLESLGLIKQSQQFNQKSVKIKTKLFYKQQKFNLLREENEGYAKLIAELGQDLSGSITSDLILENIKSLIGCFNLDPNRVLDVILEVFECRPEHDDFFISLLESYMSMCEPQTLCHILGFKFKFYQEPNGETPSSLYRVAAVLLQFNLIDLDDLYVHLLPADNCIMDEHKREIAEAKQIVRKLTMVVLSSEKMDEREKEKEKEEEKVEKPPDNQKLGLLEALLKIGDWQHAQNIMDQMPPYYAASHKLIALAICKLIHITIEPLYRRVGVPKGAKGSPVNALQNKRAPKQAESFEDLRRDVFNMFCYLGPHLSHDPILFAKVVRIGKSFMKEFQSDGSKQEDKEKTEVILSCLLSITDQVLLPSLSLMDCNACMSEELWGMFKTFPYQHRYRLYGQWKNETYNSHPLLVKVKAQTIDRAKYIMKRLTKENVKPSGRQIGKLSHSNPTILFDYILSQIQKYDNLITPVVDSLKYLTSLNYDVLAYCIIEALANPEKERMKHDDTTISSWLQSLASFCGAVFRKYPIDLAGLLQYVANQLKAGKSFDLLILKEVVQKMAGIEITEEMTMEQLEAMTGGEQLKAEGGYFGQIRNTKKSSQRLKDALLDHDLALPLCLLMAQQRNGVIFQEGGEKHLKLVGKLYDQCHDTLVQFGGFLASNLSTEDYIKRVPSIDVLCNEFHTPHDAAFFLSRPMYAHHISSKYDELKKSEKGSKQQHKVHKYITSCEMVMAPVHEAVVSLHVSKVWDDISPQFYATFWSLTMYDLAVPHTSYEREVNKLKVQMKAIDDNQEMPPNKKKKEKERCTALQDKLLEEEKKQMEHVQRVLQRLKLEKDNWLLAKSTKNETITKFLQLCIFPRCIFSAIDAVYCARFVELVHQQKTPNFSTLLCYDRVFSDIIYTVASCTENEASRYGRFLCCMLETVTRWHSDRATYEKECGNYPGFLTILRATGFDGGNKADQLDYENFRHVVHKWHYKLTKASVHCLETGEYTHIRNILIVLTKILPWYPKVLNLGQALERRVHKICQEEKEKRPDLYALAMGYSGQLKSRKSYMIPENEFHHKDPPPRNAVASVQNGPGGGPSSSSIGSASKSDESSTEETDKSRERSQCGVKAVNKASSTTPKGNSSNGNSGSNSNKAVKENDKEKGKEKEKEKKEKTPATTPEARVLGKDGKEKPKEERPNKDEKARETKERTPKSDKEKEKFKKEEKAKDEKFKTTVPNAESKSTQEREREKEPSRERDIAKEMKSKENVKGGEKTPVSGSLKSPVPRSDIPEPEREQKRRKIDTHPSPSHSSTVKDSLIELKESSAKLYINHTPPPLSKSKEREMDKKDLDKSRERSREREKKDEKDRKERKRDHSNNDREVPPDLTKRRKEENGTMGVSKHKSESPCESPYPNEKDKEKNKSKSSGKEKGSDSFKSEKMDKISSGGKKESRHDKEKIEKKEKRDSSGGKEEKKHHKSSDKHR
# UniProt Q8WUM4: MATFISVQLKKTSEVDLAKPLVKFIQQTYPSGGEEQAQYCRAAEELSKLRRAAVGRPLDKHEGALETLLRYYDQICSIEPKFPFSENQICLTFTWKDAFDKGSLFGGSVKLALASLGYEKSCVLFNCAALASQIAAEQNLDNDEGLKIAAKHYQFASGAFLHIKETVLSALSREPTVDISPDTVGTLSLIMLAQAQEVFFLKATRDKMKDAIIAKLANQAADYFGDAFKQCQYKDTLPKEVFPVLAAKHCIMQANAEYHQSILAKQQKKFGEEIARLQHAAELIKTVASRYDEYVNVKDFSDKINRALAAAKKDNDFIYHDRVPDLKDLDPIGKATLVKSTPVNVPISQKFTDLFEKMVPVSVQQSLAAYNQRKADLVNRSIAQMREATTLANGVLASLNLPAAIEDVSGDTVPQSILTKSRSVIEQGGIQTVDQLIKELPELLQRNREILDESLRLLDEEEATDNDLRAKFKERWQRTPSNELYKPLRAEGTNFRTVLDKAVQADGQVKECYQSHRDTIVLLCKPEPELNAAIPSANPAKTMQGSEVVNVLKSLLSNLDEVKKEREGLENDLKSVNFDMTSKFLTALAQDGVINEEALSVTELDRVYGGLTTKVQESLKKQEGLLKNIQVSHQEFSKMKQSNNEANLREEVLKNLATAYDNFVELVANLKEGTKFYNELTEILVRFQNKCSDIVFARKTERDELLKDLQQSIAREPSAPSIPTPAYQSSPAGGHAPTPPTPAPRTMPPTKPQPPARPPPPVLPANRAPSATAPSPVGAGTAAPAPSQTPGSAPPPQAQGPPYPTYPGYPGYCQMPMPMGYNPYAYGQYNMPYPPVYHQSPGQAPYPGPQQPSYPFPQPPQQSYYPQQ
# UniProt Q8NB90: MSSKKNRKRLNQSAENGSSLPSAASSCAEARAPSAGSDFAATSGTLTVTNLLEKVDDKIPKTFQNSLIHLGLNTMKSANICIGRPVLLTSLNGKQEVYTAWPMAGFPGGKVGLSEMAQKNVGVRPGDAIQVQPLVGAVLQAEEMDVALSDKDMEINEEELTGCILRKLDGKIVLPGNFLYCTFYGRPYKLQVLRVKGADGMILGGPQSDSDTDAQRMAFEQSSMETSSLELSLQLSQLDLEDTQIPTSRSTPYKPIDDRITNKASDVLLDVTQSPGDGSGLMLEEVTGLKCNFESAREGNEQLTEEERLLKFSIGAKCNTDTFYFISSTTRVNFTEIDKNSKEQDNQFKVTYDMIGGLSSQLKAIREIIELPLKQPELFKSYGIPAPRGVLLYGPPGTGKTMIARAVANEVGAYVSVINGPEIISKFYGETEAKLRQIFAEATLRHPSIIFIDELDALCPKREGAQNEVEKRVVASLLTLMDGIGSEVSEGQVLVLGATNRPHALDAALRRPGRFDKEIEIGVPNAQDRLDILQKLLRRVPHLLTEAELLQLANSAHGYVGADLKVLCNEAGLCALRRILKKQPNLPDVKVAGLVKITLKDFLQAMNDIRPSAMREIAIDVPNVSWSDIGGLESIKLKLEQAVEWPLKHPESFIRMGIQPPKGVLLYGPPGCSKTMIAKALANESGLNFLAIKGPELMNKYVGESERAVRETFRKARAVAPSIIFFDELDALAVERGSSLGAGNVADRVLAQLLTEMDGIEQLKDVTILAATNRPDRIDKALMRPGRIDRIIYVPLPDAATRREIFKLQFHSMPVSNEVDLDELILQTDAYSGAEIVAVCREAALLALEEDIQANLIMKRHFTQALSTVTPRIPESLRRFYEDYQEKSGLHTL
# UniProt Q8TBB5: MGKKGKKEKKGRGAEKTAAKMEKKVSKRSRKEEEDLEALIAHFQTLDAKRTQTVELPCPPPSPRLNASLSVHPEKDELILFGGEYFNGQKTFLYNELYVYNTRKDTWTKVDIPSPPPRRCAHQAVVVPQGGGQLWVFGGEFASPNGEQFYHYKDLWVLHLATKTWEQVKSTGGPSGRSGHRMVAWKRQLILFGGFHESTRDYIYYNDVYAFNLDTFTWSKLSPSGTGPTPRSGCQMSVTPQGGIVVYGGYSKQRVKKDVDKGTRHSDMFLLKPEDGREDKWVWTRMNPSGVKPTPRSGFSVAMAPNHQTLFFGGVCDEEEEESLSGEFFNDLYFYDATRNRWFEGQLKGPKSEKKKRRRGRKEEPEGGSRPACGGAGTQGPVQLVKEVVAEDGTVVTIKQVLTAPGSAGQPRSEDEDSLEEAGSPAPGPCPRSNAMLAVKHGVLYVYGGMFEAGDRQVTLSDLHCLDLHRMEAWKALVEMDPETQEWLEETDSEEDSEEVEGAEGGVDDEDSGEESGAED
# UniProt Q8WYQ5: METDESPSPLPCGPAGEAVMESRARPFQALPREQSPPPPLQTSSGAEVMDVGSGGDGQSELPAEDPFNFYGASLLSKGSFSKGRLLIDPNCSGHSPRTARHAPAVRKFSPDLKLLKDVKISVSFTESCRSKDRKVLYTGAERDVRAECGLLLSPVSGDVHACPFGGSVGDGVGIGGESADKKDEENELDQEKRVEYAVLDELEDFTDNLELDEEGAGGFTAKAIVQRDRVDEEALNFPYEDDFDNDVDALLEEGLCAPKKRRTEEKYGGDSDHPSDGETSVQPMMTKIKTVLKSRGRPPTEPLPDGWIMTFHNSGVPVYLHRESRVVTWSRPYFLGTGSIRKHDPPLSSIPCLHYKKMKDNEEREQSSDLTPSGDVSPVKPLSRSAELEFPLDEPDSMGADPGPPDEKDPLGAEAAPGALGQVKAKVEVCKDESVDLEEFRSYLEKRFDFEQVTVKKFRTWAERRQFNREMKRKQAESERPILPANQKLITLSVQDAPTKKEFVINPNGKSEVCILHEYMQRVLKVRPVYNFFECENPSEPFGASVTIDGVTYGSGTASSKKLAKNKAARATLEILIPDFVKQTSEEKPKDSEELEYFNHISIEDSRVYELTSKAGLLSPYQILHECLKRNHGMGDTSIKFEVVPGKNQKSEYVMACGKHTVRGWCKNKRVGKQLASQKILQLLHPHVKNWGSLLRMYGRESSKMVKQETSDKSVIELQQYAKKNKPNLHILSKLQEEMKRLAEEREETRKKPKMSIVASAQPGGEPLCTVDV
# UniProt Q8ND82: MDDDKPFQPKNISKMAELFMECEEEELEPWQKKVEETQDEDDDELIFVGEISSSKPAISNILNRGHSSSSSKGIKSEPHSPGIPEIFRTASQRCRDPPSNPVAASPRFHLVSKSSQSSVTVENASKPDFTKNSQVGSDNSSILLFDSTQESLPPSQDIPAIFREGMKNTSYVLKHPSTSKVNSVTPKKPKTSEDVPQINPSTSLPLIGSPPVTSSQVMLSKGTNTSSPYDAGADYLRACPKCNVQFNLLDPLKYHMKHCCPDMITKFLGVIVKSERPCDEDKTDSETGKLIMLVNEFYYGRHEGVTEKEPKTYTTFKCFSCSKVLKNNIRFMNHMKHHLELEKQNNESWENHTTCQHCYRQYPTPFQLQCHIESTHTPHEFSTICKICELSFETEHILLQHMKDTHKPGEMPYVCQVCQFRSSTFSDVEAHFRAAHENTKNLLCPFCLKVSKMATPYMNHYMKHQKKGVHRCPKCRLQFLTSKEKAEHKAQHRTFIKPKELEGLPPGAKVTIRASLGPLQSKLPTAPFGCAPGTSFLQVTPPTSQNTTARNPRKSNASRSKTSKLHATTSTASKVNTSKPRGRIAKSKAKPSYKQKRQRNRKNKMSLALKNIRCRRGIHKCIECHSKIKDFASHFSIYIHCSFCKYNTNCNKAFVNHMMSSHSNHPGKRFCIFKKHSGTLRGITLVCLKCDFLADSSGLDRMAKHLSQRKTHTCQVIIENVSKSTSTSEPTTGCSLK
# UniProt Q8WVJ2: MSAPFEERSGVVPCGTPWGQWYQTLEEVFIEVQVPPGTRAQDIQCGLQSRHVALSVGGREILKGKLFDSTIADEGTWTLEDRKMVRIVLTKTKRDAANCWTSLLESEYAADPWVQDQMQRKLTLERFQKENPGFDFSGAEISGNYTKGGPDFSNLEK
# Shown are results outside the selection of targets with a hit, which stands elsewhere. The data scatter; read single values as rough. The entries are a selection whose mix differs from that of the whole data set.
# Compound: COC(=O)/C=C/c1ccccc1 [methyl cinnamate]
# Assay: log2 ratio of iodoacetamide-alkyne labeling of the cysteine site, DMSO over compound (competition); higher = stronger covalent engagement of the cysteine by the compound, active = 1 or more
# Settings: 500 µM; treatment time 1 h; system: HEK293T cell lysate
# Procedure, shortened: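 The log2 competition ratio per cysteine is defined as mean reporter intensity in control channels over mean reporter intensity in compound channels. Lysate from HEK293T cells (2 mg/mL) received electrophile (500 µM) or vehicle for 1 h at ambient temperature, followed by iodoacetamide alkyne for 1 h. Samples were clicked to sCIP-TMT reagents, pooled, trypsin-digested overnight at 37 °C, streptavidin-enriched, acid-eluted and run on Orbitrap Eclipse LC-MS/MS with FAIMS, with quantification in FragPipe. Three replicates with duplicate channels were used, and any cysteine quantified in only one replicate was excluded.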
row,Target,log2 ratio of iodoacetamide-alkyne labeling
1,GPD1L C9 (UniProt Q8N335),inactive: 0.273
2,ARFGAP2 C79 (UniProt Q8N6H7),inactive: 0.178
3,UniProt Q8NFC6_C1170,inactive: 0.164
4,UniProt Q8N1G2_C794,inactive: 0.347
5,THOC2 C1064 (UniProt Q8NI27),inactive: 0.244
6,NPLOC4 C208 (UniProt Q8TAT6),inactive: 0.104
7,PDCD6IP C231 (UniProt Q8WUM4),inactive: 0.175
8,ZNF687 C1086 (UniProt Q8N1G0),inactive: 0.0152
9,NEK7 C298 (UniProt Q8TDX7),inactive: 0.142
10,XRN1 C132 (UniProt Q8IZH2),inactive: 0.157
11,SPATA5 C318 (UniProt Q8NB90),inactive: 0.342
12,GATAD2B C420 (UniProt Q8WXI9),inactive: 0.0732
13,OTUD6B C172 (UniProt Q8N6M0),inactive: 0.188
14,DNAJB14 C192 (UniProt Q8TBM8),inactive: -0.303
15,BANP C113 (UniProt Q8N9N5),inactive: 0.326
16,UniProt Q8WZA9_C443,inactive: -0.284
17,SRBD1 C165 (UniProt Q8N5C6),inactive: -0.0659
18,UniProt Q8N163_C644,inactive: 0.00694
19,DDX1 C110 (UniProt Q92499),inactive: 0.175

row,Target,log2 ratio of iodoacetamide-alkyne labeling
1,MRPL43 C91 (UniProt Q8N983),inactive: 0.0325
2,UniProt Q8NFC6_C2164,inactive: 0.254
3,KLHDC4 C430 (UniProt Q8TBB5),inactive: 0.146
4,UniProt Q8WVB3_C244,inactive: 0.232
5,DGCR8 C256 (UniProt Q8WYQ5),inactive: -0.0192
6,NPLOC4 C355 (UniProt Q8TAT6),inactive: -0.111
7,PAF1 C218 (UniProt Q8N7H5),inactive: 0.102
8,PHF10 C380 (UniProt Q8WUB8),inactive: 0.16
9,UniProt Q8N1I0_C1857,inactive: 0.319
10,SETD7 C200 (UniProt Q8WTS6),inactive: 0.209
11,ZNF280C C94 (UniProt Q8ND82),inactive: 0.512
12,NUP93 C422 (UniProt Q8N1F7),inactive: 0.142
13,PHIP C612 (UniProt Q8WWQ0),inactive: -0.097
14,UniProt Q8N6R0_C226,inactive: -0.0468
15,NUDCD2 C99 (UniProt Q8WVJ2),inactive: 0.0469
16,OTUD6B C292 (UniProt Q8N6M0),inactive: 0.297
17,FLAD1 C499 (UniProt Q8NFF5),inactive: 0.105
18,DDX51 C238 (UniProt Q8N8A6),inactive: -0.00808

# Quoted at random: 2 entries already listed
row,Target,log2 ratio of iodoacetamide-alkyne labeling
10,SETD7 C200 (UniProt Q8WTS6),inactive: 0.209
15,NUDCD2 C99 (UniProt Q8WVJ2),inactive: 0.0469
